Source: paper PMC9392063

Chains of the proteins cited; added tags and fusions are not shown. Residues count along the entry.
UniProt O60260: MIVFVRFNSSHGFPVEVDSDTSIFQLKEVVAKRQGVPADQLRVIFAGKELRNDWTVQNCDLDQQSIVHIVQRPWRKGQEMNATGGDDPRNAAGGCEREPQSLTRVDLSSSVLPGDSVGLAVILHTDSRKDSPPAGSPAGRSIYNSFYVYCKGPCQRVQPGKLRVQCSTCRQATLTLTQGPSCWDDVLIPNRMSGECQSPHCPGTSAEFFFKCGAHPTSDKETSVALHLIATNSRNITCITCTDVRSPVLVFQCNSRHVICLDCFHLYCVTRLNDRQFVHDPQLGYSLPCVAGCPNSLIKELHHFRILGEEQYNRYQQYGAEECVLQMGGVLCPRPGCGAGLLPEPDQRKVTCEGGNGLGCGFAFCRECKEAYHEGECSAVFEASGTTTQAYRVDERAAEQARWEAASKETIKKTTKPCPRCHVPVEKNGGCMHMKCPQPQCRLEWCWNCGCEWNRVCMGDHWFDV
UniProt Q9UNE7: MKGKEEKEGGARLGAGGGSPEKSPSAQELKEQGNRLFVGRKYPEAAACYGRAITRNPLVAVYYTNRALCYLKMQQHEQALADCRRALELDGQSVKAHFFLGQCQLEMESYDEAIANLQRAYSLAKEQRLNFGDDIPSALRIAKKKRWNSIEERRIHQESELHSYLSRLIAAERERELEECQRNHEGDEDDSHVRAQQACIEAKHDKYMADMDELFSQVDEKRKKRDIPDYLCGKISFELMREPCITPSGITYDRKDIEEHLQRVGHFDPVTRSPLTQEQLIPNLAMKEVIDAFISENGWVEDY
UniProt Q9Y6K9: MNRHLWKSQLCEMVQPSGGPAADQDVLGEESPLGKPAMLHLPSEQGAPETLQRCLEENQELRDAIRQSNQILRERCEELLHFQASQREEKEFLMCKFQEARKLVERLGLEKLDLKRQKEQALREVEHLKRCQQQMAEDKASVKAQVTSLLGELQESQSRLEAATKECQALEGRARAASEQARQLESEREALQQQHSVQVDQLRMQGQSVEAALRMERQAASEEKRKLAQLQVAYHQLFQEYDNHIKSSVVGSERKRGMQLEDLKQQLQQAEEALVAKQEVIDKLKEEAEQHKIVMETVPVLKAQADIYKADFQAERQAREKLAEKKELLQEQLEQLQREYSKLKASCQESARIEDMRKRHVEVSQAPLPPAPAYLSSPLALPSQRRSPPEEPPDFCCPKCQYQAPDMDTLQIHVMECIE
UniProt P63165, residues 1-97: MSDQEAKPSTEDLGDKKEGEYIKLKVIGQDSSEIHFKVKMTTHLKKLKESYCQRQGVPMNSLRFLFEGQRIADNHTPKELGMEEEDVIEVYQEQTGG
UniProt Q16186: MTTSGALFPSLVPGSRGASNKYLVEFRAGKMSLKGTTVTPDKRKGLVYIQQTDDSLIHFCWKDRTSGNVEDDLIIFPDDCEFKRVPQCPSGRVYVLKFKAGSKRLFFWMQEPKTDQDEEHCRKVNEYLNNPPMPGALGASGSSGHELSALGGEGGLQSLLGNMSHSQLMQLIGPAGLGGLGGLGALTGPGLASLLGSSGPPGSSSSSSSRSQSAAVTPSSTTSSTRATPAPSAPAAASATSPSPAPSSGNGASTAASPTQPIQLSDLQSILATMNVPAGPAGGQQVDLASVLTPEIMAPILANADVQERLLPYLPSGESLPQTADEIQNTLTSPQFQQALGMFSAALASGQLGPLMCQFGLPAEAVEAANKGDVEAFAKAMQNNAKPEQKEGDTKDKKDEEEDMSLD
UniProt Q12972: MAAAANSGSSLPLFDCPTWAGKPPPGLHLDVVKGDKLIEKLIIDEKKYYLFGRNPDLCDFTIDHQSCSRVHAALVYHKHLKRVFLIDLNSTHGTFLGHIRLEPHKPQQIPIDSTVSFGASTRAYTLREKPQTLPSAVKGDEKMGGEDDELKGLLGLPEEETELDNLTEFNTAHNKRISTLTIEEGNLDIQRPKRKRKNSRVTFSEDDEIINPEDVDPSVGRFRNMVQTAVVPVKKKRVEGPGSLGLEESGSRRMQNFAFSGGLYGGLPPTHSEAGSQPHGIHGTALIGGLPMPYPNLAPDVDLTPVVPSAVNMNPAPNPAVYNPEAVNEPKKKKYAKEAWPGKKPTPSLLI
UniProt P33316, residues 70-252: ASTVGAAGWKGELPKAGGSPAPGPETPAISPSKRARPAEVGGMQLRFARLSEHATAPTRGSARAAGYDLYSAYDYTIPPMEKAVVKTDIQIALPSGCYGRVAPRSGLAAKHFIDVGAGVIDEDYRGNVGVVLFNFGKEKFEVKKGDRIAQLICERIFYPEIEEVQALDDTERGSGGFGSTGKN
UniProt P25685: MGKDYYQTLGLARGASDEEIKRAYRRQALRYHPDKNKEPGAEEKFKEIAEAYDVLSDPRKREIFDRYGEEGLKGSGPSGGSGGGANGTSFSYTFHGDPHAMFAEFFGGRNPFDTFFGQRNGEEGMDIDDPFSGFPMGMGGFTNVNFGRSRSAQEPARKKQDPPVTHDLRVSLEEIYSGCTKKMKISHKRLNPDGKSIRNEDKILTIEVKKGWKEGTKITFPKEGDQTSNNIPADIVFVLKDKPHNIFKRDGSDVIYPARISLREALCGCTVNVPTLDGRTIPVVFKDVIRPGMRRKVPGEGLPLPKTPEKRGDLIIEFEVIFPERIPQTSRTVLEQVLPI
UniProt P55036: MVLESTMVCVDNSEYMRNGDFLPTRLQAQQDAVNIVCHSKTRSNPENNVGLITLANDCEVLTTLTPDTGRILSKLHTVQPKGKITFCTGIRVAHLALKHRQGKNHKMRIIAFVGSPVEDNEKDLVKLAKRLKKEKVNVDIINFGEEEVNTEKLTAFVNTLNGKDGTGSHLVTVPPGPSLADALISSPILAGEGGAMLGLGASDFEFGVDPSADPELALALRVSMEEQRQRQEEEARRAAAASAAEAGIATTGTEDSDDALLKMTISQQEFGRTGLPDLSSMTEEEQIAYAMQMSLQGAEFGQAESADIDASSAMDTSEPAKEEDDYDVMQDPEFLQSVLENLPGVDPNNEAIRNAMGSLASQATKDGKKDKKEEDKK
UniProt Q99700: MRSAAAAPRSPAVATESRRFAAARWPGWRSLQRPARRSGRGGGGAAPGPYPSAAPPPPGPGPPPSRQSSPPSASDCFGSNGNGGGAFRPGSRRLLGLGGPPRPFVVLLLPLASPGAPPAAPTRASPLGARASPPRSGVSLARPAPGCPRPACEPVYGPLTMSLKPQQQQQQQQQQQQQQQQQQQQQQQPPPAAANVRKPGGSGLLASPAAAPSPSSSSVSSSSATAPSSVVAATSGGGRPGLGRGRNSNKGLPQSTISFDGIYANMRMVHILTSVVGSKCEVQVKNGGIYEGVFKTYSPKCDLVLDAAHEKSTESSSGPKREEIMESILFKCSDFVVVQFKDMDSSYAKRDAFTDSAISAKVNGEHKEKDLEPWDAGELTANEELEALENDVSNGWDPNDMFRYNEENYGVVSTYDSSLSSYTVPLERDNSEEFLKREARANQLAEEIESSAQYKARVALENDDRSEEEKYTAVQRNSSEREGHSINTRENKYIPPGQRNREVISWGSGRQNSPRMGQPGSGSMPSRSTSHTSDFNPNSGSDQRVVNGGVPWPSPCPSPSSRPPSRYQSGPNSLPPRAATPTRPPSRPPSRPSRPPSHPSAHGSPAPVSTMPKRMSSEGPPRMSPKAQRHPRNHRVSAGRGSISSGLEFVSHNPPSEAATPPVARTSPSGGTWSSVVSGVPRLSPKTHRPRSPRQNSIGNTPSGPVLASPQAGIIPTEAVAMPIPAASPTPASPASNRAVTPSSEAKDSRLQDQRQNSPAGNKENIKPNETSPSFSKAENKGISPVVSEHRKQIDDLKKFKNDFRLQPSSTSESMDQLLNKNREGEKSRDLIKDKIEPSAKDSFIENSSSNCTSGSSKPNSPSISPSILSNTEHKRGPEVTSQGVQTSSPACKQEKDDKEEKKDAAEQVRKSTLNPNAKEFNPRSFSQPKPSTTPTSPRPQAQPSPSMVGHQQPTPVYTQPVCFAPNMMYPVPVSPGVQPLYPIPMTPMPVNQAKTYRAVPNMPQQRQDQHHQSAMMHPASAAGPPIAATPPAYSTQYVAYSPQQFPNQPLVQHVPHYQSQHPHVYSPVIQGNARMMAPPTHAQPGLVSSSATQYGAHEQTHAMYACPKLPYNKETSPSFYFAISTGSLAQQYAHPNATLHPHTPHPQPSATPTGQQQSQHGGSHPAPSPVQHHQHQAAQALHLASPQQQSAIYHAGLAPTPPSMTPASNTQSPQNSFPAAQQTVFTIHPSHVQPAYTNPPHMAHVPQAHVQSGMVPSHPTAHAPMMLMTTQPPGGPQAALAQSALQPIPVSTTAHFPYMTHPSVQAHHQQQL
UniProt Q9NP77: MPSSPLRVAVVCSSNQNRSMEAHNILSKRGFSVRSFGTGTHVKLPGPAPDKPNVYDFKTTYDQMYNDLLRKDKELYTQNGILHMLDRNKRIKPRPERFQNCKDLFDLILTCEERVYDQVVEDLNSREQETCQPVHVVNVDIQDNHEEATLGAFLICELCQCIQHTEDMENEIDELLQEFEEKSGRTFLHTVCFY
UniProt Q9H832: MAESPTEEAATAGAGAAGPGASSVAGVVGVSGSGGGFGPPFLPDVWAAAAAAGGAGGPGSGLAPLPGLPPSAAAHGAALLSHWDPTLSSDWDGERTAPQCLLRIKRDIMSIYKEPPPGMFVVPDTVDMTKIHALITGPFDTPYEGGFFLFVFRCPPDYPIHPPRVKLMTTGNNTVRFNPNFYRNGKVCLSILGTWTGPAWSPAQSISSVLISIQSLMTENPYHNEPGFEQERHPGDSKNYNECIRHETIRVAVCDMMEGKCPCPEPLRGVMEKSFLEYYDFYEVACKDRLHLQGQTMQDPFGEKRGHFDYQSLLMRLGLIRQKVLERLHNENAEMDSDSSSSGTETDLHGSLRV
UniProt P11142: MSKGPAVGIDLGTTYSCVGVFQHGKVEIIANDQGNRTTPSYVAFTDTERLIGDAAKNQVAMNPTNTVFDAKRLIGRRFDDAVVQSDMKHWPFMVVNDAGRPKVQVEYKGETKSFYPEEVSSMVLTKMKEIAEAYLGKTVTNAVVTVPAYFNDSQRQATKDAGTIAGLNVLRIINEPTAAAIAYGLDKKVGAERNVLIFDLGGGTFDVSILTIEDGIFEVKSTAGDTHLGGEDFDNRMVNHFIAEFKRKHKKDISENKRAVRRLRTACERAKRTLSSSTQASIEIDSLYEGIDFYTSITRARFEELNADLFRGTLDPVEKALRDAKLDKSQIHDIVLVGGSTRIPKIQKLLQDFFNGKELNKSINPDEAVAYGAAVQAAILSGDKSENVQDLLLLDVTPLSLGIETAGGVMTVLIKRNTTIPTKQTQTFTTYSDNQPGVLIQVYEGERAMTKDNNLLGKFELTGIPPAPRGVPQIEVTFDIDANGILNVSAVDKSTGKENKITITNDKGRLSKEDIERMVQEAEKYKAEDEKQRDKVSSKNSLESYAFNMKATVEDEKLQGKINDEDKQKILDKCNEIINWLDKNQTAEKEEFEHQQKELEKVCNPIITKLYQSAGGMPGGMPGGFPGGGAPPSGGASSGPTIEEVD

B1: PSMD9 (protein, UniProt O00233 1-223)
chain: MSDEEARQSGGSSQAGVVTVSDVQELMRRKEEIEAQIKANYDVLESQKGIGMNEPLVDCEGYPRSDVDLYQVRTARHNIICLQNDHKAVMKQVEEALHQLHARDKEKQARDMAEAHKEAMSRKLGQSESQGPPRAFAKVNSISPGSPASIAGLQVDDEIVEFGSVNTQNFQSLHNIGSVVQHSEGKPLNVTVIRRGEKHQLRLVPTRWAGKGLLGCNIIPLQR
B2: EPS15 (protein, UniProt P42566 1-896)
chain: MAAAAQLSLTQLSSGNPVYEKYYRQVDTGNTGRVLASDAAAFLKKSGLPDLILGKIWDLADTDGKGILNKQEFFVALRLVACAQNGLEVSLSSLNLAVPPPRFHDTSSPLLISGTSAAELPWAVKPEDKAKYDAIFDSLSPVNGFLSGDKVKPVLLNSKLPVDILGRVWELSDIDHDGMLDRDEFAVAMFLVYCALEKEPVPMSLPPALVPPSKRKTWVVSPAEKAKYDEIFLKTDKDMDGFVSGLEVREIFLKTGLPSTLLAHIWSLCDTKDCGKLSKDQFALAFHLISQKLIKGIDPPHVLTPEMIPPSDRASLQKNIIGSSPVADFSAIKELDTLNNEIVDLQREKNNVEQDLKEKEDTIKQRTSEVQDLQDEVQRENTNLQKLQAQKQQVQELLDELDEQKAQLEEQLKEVRKKCAEEAQLISSLKAELTSQESQISTYEEELAKAREELSRLQQETAELEESVESGKAQLEPLQQHLQDSQQEISSMQMKLMEMKDLENHNSQLNWCSSPHSILVNGATDYCSLSTSSSETANLNEHVEGQSNLESEPIHQESPARSSPELLPSGVTDENEVTTAVTEKVCSELDNNRHSKEEDPFNVDSSSLTGPVADTNLDFFQSDPFVGSDPFKDDPFGKIDPFGGDPFKGSDPFASDCFFRQSTDPFATSSTDPFSAANNSSITSVETLKHNDPFAPGGTVVAASDSATDPFASVFGNESFGGGFADFSTLSKVNNEDPFRSATSSSVSNVVITKNVFEETSVKSEDEPPALPPKIGTPTRPCPLPPGKRSINKLDSPDPFKLNDPFQPFPGNDSPKEKDPEIFCDPFTSATTTTNKEADPSNFANFSAYPSEEDMIEWAKRESEREEEQRLARLNQQEQEDLELAIALSKSEISEA
B3: PSPC1 (protein, UniProt Q8WXF1 1-523)
chain: MMLRGNLKQVRIEKNPARLRALESAVGESEPAAAAAMALALAGEPAPPAPAPPEDHPDEEMGFTIDIKSFLKPGEKTYTQRCRLFVGNLPTDITEEDFKRLFERYGEPSEVFINRDRGFGFIRLESRTLAEIAKAELDGTILKSRPLRIRFATHGAALTVKNLSPVVSNELLEQAFSQFGPVEKAVVVVDDRGRATGKGFVEFAAKPPARKALERCGDGAFLLTTTPRPVIVEPMEQFDDEDGLPEKLMQKTQQYHKEREQPPRFAQPGTFEFEYASRWKALDEMEKQQREQVDRNIREAKEKLEAEMEAARHEHQLMLMRQDLMRRQEELRRLEELRNQELQKRKQIQLRHEEEHRRREEEMIRHREQEELRRQQEGFKPNYMENREQEMRMGDMGPRGAINMGDAFSPAPAGNQGPPPMMGMNMNNRATIPGPPMGPGPAMGPEGAANMGTPMMPDNGAVHNDRFPQGPPSQMGSPMGSRTGSETPQAPMSGVGPVSGGPGGFGRGSQGGNFEGPNKRRRY
B4: UCHL3 (protein, UniProt P15374 1-230)
chain: MEGQRWLPLEANPEVTNQFLKQLGLHPNWQFVDVYGMDPELLSMVPRPVCAVLLLFPITEKYEVFRTEEEEKIKSQGQDVTSSVYFMKQTISNACGTIGLIHAIANNKDKMHFESGSTLKKFLEESVSMSPEERARYLENYDAIRVTHETSAHEGQTEAPSIDEKVDLHFIALVHVDGHLYELDGRKPFPINHGETSDETLLEDAIEVCKKFMERDPDELRFNAIALSAA
B5: SNW1 (protein, UniProt Q13573 1-536)
chain: MALTSFLPAPTQLSQDQLEAEEKARSQRSRQTSLVSSRREPPPYGYRKGWIPRLLEDFGDGGAFPEIHVAQYPLDMGRKKKMSNALAIQVDSEGKIKYDAIARQGQSKDKVIYSKYTDLVPKEVMNADDPDLQRPDEEAIKEITEKTRVALEKSVSQKVAAAMPVRAADKLAPAQYIRYTPSQQGVAFNSGAKQRVIRMVEMQKDPMEPPRFKINKKIPRGPPSPPAPVMHSPSRKMTVKEQQEWKIPPCISNWKNAKGYTIPLDKRLAADGRGLQTVHINENFAKLAEALYIADRKAREAVEMRAQVERKMAQKEKEKHEEKLREMAQKARERRAGIKTHVEKEDGEARERDEIRHDRRKERQHDRNLSRAAPDKRSKLQRNENRDISEVIALGVPNPRTSNEVQYDQRLFNQSKGMDSGFAGGEDEIYNVYDQAWRGGKDMAQSIYRPSKNLDKDMYGDDLEARIKTNRFVPDKEFSGSDRRQRGREGPVQFEEDPFGLDKFLEEAKQHGGSKRPSDSSRPKEHEHEGKKRRKE

How the values were obtained:
[1] = molecular target: miniSOG fused to the N-terminus of Parkin (human (cDNA from HEK293T cells)) (UniProt O60260); assay: proximity labelling; PDPL in living HEK293T cells stably expressing miniSOG fused to Parkin; 10 μM CCCP with probe 3 in HBSS 1 h at 37 °C, blue LED; biotin-PEG3-azide, NeutrAvidin enrichment, LC-MS/MS with label-free quantification against HEK293T
[2] = molecular target: miniSOG fused to the N-terminus of Parkin (human (cDNA from HEK293T cells)) (UniProt O60260); assay: proximity labelling; PDPL processing and Western blot of the pull-down; parental HEK293T cells compared with the N-terminal Parkin stable line

Molecule | binding [1] | binding [2]
STUB1 (from UniProt Q9UNE7 1-303) | binds | 
TP53 (from UniProt P04637 1-393) | binds | 
IKBKG (from UniProt Q9Y6K9 1-419) | binds | 
SUMO1 (from UniProt P63165 1-97) | binds | 
ARDM1 (from UniProt Q16186 1-407) | binds | 
PPP1R8 (from UniProt Q12972 1-351) | binds | 
DUT (from UniProt P33316 70-252) | binds | binds
DNAJB1 (from UniProt P25685 1-340) | binds | binds
PSMD4 (from UniProt P55036 1-377) | binds | 
ATXN2 (from UniProt Q99700 1-1313) | binds | 
Ssu72 (from UniProt Q9NP77 1-194) | binds | 
UBE2Z (from UniProt Q9H832 1-354) | binds | 
HSPA8 (from UniProt P11142 1-646) | binds | 
B1 | binds | 
B2 | binds | 
B3 | binds | 
B4 | binds | 
B5 | binds | 

These are yes or no findings as the source states them, for the method shown. Binding seen in cells or lysates may run through a third protein. A yes stands for co-enrichment or nearness to the bait. Other partners may have been found.
